Source: the supplement of paper PMC10849652
The other results are listed elsewhere or left out.

Chains of the proteins cited; added tags and fusions are not shown. Lines headed by an entry give the natural chain unless they say otherwise; changes in a name come on top.
UniProt Q9H582: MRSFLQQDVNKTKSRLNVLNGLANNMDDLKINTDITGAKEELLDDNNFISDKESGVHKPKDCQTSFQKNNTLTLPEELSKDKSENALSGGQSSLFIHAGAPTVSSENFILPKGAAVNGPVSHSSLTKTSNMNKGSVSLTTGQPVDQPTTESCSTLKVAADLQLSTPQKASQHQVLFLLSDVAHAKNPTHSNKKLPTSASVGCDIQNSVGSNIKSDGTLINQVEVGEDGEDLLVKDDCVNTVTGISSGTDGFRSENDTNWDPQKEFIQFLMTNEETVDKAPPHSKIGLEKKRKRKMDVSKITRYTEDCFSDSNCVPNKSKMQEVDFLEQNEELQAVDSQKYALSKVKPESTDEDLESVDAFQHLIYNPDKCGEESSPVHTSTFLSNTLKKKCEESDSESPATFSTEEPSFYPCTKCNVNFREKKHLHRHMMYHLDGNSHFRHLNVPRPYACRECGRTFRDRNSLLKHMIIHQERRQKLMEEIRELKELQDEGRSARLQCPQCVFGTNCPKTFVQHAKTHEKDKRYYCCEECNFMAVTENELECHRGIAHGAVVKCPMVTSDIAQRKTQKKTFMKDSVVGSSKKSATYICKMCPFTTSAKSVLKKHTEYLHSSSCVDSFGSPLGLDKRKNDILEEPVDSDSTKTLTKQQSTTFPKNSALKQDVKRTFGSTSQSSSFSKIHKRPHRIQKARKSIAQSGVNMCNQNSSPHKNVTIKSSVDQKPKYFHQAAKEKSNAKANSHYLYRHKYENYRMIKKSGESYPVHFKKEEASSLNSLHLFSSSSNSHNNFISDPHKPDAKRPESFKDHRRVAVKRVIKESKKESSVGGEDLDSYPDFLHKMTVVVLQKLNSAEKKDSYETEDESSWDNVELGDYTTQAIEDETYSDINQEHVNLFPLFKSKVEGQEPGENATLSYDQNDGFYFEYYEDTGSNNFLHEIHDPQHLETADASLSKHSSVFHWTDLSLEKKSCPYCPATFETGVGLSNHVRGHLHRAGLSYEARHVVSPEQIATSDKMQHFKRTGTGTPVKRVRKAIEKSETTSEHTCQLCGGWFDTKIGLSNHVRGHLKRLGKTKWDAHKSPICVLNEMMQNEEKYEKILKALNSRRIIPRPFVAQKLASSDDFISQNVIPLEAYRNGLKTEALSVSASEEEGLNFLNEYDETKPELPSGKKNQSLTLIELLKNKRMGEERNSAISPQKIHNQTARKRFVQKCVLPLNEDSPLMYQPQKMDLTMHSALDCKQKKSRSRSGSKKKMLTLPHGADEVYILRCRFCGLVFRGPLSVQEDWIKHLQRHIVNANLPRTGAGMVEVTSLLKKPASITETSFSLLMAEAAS
UniProt Q9UBW7: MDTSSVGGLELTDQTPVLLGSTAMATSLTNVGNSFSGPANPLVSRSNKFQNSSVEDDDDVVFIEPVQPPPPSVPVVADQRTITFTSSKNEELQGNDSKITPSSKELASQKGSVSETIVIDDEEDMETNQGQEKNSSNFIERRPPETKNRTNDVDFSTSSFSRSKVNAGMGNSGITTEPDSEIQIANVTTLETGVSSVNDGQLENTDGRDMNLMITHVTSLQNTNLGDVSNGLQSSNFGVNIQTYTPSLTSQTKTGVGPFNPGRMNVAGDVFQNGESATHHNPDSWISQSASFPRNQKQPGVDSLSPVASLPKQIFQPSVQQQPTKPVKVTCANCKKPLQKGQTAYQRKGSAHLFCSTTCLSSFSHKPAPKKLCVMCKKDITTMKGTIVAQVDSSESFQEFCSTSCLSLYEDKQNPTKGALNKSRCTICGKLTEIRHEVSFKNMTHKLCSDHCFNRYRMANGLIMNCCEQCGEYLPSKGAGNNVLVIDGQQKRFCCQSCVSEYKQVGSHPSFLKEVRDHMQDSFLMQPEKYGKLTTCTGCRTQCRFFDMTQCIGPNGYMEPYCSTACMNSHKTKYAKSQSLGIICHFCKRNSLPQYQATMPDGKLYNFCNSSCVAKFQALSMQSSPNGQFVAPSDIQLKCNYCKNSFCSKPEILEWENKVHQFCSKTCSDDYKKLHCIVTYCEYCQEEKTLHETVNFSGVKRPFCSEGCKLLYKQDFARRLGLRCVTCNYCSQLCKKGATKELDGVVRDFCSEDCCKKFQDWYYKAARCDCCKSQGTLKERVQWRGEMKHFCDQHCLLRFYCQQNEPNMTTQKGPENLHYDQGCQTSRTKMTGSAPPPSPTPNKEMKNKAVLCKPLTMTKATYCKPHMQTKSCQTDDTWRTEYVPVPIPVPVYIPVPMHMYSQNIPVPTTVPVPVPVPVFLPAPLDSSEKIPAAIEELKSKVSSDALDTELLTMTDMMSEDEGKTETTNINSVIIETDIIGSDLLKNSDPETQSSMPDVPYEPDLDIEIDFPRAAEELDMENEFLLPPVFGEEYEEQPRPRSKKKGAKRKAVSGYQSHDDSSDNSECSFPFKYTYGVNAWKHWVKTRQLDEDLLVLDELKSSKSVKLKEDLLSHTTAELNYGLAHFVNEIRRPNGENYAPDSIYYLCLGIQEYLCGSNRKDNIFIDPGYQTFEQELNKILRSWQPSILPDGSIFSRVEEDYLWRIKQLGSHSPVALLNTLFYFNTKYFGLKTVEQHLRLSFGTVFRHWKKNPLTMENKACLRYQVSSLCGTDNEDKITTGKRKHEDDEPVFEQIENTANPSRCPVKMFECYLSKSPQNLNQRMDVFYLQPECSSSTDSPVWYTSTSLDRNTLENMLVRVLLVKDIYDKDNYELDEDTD
UniProt O00488: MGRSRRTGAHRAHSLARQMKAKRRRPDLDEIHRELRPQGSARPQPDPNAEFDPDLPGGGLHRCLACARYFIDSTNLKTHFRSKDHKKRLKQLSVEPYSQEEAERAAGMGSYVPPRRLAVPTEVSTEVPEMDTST
UniProt Q5VUA4: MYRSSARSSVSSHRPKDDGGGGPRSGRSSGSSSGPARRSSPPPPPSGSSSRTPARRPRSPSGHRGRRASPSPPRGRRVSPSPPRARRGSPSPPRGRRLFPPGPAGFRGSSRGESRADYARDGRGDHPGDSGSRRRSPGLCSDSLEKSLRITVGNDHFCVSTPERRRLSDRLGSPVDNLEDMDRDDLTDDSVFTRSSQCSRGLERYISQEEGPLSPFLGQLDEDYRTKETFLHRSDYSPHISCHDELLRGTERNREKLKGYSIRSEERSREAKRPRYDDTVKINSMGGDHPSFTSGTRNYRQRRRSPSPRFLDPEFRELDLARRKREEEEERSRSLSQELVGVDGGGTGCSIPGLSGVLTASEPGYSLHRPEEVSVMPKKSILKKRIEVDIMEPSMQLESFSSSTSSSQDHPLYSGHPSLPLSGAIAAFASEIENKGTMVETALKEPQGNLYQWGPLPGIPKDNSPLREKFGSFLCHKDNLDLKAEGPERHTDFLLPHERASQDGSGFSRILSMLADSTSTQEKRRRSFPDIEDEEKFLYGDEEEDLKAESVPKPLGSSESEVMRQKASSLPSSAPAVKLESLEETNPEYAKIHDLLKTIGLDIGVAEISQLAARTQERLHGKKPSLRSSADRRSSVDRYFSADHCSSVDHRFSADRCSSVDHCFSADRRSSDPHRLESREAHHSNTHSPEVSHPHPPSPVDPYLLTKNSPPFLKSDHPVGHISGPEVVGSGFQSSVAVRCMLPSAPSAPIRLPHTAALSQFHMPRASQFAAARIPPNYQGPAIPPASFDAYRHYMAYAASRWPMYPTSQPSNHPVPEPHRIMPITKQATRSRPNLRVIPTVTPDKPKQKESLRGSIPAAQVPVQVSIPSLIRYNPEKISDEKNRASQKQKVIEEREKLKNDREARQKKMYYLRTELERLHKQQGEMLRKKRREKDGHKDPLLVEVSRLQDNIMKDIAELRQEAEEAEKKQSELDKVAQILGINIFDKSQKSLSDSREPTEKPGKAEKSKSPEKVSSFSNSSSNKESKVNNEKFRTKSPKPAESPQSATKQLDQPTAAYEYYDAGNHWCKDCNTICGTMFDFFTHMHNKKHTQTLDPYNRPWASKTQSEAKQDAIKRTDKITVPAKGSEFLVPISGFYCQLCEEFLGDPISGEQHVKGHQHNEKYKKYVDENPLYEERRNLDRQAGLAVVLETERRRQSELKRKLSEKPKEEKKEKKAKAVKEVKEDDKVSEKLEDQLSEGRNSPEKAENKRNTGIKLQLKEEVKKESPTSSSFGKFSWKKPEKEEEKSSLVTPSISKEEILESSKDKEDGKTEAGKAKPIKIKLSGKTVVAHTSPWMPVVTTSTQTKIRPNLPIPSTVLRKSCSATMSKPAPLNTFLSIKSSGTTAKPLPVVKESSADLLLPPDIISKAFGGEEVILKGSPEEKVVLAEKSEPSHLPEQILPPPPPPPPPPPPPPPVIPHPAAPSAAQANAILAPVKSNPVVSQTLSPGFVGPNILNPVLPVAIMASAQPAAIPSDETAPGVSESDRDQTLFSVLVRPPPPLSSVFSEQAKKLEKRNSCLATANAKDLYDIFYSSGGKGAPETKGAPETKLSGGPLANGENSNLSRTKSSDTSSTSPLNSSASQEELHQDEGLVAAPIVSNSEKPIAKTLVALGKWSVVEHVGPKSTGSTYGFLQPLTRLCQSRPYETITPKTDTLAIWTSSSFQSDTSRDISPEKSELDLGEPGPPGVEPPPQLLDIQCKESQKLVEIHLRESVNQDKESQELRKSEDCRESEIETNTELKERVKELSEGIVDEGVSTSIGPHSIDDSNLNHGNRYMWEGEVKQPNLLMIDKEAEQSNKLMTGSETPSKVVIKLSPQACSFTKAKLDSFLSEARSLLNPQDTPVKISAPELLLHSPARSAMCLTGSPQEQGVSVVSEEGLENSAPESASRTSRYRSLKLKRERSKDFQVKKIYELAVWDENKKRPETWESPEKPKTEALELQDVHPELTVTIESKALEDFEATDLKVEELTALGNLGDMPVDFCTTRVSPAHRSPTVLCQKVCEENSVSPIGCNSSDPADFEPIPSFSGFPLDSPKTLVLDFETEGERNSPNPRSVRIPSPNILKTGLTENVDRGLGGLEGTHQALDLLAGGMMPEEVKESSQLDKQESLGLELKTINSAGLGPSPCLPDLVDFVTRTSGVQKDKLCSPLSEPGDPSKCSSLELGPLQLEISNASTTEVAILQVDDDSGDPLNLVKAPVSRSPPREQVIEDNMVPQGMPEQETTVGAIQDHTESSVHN
UniProt Q8NB15: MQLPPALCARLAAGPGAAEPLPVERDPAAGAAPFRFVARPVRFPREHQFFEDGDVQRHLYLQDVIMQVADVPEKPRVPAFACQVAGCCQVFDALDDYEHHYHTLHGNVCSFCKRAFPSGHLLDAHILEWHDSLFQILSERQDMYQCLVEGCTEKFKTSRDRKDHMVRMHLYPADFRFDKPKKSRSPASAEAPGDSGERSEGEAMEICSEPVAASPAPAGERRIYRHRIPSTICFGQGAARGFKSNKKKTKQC
UniProt Q9Y4E5: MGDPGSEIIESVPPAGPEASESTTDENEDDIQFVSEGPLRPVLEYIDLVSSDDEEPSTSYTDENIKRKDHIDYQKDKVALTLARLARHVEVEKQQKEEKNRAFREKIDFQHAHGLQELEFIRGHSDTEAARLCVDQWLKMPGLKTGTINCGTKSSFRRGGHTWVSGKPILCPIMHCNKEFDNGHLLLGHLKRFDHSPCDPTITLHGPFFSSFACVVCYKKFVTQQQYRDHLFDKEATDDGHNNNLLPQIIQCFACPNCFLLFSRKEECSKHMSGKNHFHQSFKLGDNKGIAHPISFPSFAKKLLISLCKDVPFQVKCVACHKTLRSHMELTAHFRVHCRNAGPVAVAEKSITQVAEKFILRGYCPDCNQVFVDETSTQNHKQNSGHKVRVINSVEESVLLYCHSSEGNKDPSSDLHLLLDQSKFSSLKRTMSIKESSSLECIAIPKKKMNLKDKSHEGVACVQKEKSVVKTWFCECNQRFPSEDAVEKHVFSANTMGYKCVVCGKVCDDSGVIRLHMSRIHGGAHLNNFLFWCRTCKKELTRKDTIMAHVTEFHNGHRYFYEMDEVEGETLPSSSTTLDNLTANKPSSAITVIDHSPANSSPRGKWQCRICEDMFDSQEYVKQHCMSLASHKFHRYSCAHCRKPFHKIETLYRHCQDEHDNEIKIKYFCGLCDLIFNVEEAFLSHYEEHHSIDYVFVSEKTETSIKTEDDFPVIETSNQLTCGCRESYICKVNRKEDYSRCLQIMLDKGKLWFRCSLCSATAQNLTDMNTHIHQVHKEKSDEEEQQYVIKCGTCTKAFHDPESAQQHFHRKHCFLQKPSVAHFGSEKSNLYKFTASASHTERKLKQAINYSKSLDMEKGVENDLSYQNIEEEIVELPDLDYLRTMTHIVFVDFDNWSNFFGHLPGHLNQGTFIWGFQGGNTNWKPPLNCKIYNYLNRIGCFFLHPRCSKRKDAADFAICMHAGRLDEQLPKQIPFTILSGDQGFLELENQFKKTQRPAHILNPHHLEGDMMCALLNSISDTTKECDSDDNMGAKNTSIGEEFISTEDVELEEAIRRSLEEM

Tests used:
Assay in all cases: log2 fold change, soluble protein after heating vs DMSO (PISA); higher = thermal stabilisation; K562 lysate, 10 uM; active = over 0.2 and 3.5 SD of the protein, either way, in both replicates (recomputed)
erlotinib = compound: C#Cc1cccc(Nc2ncnc3cc(OCCOC)c(OCCOC)cc23)c1 [erlotinib]
Method in brief: (§1)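 K562 pellets were dounce-homogenised in PBS pH 7.4 containing 1 mM MgCl2, and the crude extract, at 1 mg/mL protein, was exposed to 10 μM compound for 30 min. Aliquots were heated for 3 min across 48°C-58°C, pooled, brought to 0.5% NP-40 at 4°C and spun at 21,000xg for 90 min, with the supernatant taken as soluble protein. TMTpro 16plex LC-MS/MS with equalised channel sums quantified that protein. Values are log-two fold changes in thermal stability relative to solvent controls, taken from duplicates.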

[1] = compound: C/C(=N\NC(=O)C1=CC(=CC=C1)S(=O)(=O)N2CCOCC2)/C3=C(C=CC(=C3)Cl)O
Method in brief: as §1

[2] = compound: C1=CC(=CC=C1C2=NC3=C(N2)C=C(C=C3)C(=O)N)OC4=CC=C(C=C4)Cl
Method in brief: as §1

[3] = compound: C1=CC2=C(C=CC(=C2)/C=C\3/C(=O)NC(=NCC4=CC=CS4)S3)N=C1
Method in brief: as §1

[4] = compound: C1=CC2=NC=CN=C2C=C1/C=C/3\C(=O)NC(=O)S3
Method in brief: as §1

[5] = compound: C1=CC=C(C=C1)C2=NC(=C(N2)C3=CC=NC=C3)C4=CC(=C(C=C4)Cl)O
Method in brief: as §1

[6] = compound: C1=CC=C2C(=C1)C3=NNC4=CC=CC(=C43)C2=O
Method in brief: as §1

[7] = compound: C1CCN(C1)C(=O)NC2=CC=CC(=C2)NC3=NC=C(C(=N3)NCCC4=CN=CN4)Br
Method in brief: as §1

[8] = compound: C1CN(CCC1(CC2=CC=C(C=C2)Cl)N)C3=NC=NC4=C3C=CN4
Method in brief: as §1

IRAK-1-4 Inhibitor I = compound: C1COCCN1CCN2C3=CC=CC=C3N=C2NC(=O)C4=CC(=CC=C4)[N+](=O)[O-] [IRAK-1-4 Inhibitor I]
Method in brief: as §1

Measured: log2 fold change

ZZEF1 (UniProt O43149)
inactive: erlotinib 0.008 | [1] -0.019 | [2] -0.012 | [3] 0.019 | [4] -0.012 | [5] -0.009 | [6] -0.017 | [7] -0.011 | [8] -0.009 | IRAK-1-4 Inhibitor I 0.017

ZNF207 isoform 4 (UniProt O43670)
inactive: erlotinib 0.002 | [1] -0.014 | [2] 0.059 | [3] -0.009 | [4] 0.007 | [5] -0.051 | [6] 0 | [7] 0 | [8] 0.003 | IRAK-1-4 Inhibitor I 0.003

ZNF644 (UniProt Q9H582)
inactive: erlotinib 0.192 | [1] -0.085 | [2] 0.071 | [3] 0.075 | [4] 0.066 | [5] -0.115 | [6] -0.04 | [7] 0.036 | [8] -0.037 | IRAK-1-4 Inhibitor I 0.035

ZNF148 (UniProt Q9UQR1)
inactive: erlotinib 0.022 | [1] -0.041 | [2] -0.074 | [3] -0.031 | [4] -0.068 | [5] -0.058 | [6] 0.13 | [7] -0.022 | [8] 0.035 | IRAK-1-4 Inhibitor I -0.007

ZNF22 (UniProt P17026)
inactive: erlotinib 0.156 | [1] -0.409 | [2] -0.022 | [3] -0.084 | [4] -0.153 | [5] 0.013 | [6] 0.238 | [7] 0.098 | [8] -0.082 | IRAK-1-4 Inhibitor I 0.059

ZNF407 (UniProt Q9C0G0)
inactive: erlotinib 0.127 | [1] 0.121 | [2] 0.048 | [3] -0.031 | [4] -0.079 | [5] -0.143 | [6] -0.055 | [7] 0.01 | [8] -0.02 | IRAK-1-4 Inhibitor I -0.048

ZNF768 (UniProt Q9H5H4)
inactive: erlotinib -0.12 | [1] -0.062 | [2] -0.013 | [3] -0.006 | [4] -0.009 | [5] 0.062 | [6] -0.039 | [7] -0.047 | [8] 0.032 | IRAK-1-4 Inhibitor I -0.027

ZYX (UniProt Q15942)
inactive: erlotinib -0.013 | [1] -0.04 | [2] 0.02 | [3] 0 | [4] 0.008 | [5] 0.042 | [6] 0 | [7] 0.02 | [8] 0.035 | IRAK-1-4 Inhibitor I 0.033

ZKSCAN1 (UniProt P17029)
inactive: erlotinib -0.036 | [1] -0.113 | [2] -0.029 | [3] 0.028 | [4] -0.048 | [5] 0.097 | [6] -0.014 | [7] 0.07 | [8] -0.044 | IRAK-1-4 Inhibitor I 0.052

ZMYM2 (UniProt Q9UBW7)
inactive: erlotinib 0.036 | [1] -0.049 | [2] 0.038 | [3] 0.073 | [4] -0.022 | [5] 0.053 | [6] -0.05 | [7] -0.209 | [8] 0.116 | IRAK-1-4 Inhibitor I 0.07

ZWINT (UniProt O95229)
inactive: erlotinib 0.01 | [1] 0.04 | [2] -0.021 | [3] 0.002 | [4] 0.012 | [5] -0.002 | [6] 0.032 | [7] -0.003 | [8] 0.01 | IRAK-1-4 Inhibitor I 0.005

ZMPSTE24 (UniProt O75844)
inactive: erlotinib -0.006 | [1] 0.022 | [2] 0.007 | [3] 0.01 | [4] -0.012 | [5] -0.005 | [6] -0.029 | [7] 0.006 | [8] -0.003 | IRAK-1-4 Inhibitor I 0.038

ZNF330 (UniProt Q9Y3S2)
inactive: erlotinib 0.022 | [1] -0.019 | [2] 0.026 | [3] 0.013 | [4] 0.022 | [5] 0.021 | [6] 0.002 | [7] -0.06 | [8] 0 | IRAK-1-4 Inhibitor I -0.012

ZNRD2 (UniProt G3V1B8)
inactive: erlotinib -0.005 | [1] -0.02 | [2] 0.029 | [3] 0.093 | [4] 0.082 | [5] 0.005 | [6] -0.074 | [7] 0.035 | [8] -0.195 | IRAK-1-4 Inhibitor I -0.072

ZNF92 (UniProt Q03936)
inactive: erlotinib -0.076 | [1] -0.014 | [2] -0.041 | [3] -0.029 | [4] -0.005 | [5] 0.218 | [6] 0.091 | IRAK-1-4 Inhibitor I -0.051

ZNF225 (UniProt Q9UK10)
inactive: erlotinib 0.157 | [1] -0.315 | [2] -0.047 | [3] 0.078 | [4] -0.054 | [5] 0.09 | [6] -0.14 | [7] -0.092 | [8] 0.186 | IRAK-1-4 Inhibitor I 0.127

ZNF8 (UniProt P17098)
inactive: erlotinib -0.045 | [1] -0.296 | [2] -0.024 | [3] -0.107 | [4] 0.113 | [5] -0.108 | [6] 0.113 | IRAK-1-4 Inhibitor I 0.044

ZWILCH (UniProt Q9H900)
inactive: erlotinib -0.008 | [1] 0.003 | [2] -0.007 | [3] 0.025 | [4] -0.008 | [5] 0.009 | [6] -0.069 | [7] 0.023 | [8] -0.006 | IRAK-1-4 Inhibitor I -0.032

ZNF593 (UniProt O00488)
inactive: erlotinib -0.084 | [1] -0.149 | [2] 0.116 | [3] 0.003 | [4] 0.005 | [5] -0.098 | [6] 0.059 | [7] 0 | [8] 0.084 | IRAK-1-4 Inhibitor I 0.003

ZNF318 (UniProt Q5VUA4)
inactive: erlotinib 0.026 | [1] -0.033 | [2] -0.054 | [3] -0.015 | [4] -0.078 | [5] 0.003 | [6] 0.004 | [7] 0.023 | [8] 0.004 | IRAK-1-4 Inhibitor I 0.012

2 records picked at random from the list so far:
ZYX (UniProt Q15942)
inactive: erlotinib -0.013 | [1] -0.04 | [2] 0.02 | [3] 0 | [4] 0.008 | [5] 0.042 | [6] 0 | [7] 0.02 | [8] 0.035 | IRAK-1-4 Inhibitor I 0.033

ZNF407 (UniProt Q9C0G0)
inactive: erlotinib 0.127 | [1] 0.121 | [2] 0.048 | [3] -0.031 | [4] -0.079 | [5] -0.143 | [6] -0.055 | [7] 0.01 | [8] -0.02 | IRAK-1-4 Inhibitor I -0.048

(continued)

ZNF629 (UniProt Q9UEG4)
inactive: erlotinib -0.032 | [1] 0.004 | [2] 0.145 | [3] -0.028 | [4] -0.085 | [5] -0.035 | [6] 0.006 | [7] -0.03 | [8] 0.002 | IRAK-1-4 Inhibitor I 0.015

ZYG11B (UniProt Q9C0D3)
inactive: erlotinib 0.046 | [1] -0.022 | [2] 0.064 | [3] 0.006 | [4] -0.023 | [5] -0.016 | [6] -0.04 | [7] -0.014 | [8] 0.042 | IRAK-1-4 Inhibitor I 0.014

ZNF511 (UniProt Q8NB15)
inactive: erlotinib 0.029 | [1] 0.069 | [2] 0.071 | [3] -0.39 | [4] -0.029 | [5] -0.006 | [6] 0.091 | [7] 0.099 | [8] 0.132 | IRAK-1-4 Inhibitor I 0.07

ZNF507 (UniProt Q8TCN5)
inactive: erlotinib -0.088 | [1] -0.126 | [2] 0.008 | [3] 0.035 | [4] -0.052 | [5] 0.006 | [6] -0.036 | [7] 0.012 | [8] -0.039 | IRAK-1-4 Inhibitor I 0.028

ZNHIT6 (UniProt Q9NWK9)
inactive: erlotinib 0.059 | [1] 0.475 | [2] 0.062 | [3] 0.024 | [4] -0.007 | [5] -0.008 | [6] -0.068 | [7] 0 | [8] 0.014 | IRAK-1-4 Inhibitor I 0.003

ZNF445 (UniProt P59923)
inactive: erlotinib 0.057 | [1] -0.04 | [2] 0.012 | [3] -0.024 | [4] -0.12 | [5] -0.057 | [6] -0.059 | IRAK-1-4 Inhibitor I -0.172

ZNF830 (UniProt Q96NB3)
inactive: erlotinib -0.028 | [1] 0.03 | [2] 0.024 | [3] 0 | [4] -0.036 | [5] 0.029 | [6] 0.014 | [7] -0.017 | [8] 0.021 | IRAK-1-4 Inhibitor I 0.009

ZNF451 (UniProt Q9Y4E5)
inactive: erlotinib 0.036 | [1] -0.064 | [2] -0.007 | [3] -0.002 | [4] -0.032 | [5] 0.002 | [6] -0.014 | [7] -0.096 | [8] 0.026 | IRAK-1-4 Inhibitor I -0.009

ZNF316 (UniProt A6NFI3)
inactive: erlotinib -0.007 | [1] -0.096 | [2] 0.049 | [3] 0.062 | [4] 0.052 | [5] 0.152 | [6] -0.146 | [7] -0.113 | [8] -0.075 | IRAK-1-4 Inhibitor I -0.036

ZNF638 (UniProt Q14966)
inactive: erlotinib -0.002 | [1] -0.065 | [2] -0.018 | [3] -0.017 | [4] -0.019 | [5] 0.024 | [6] -0.023 | [7] -0.028 | [8] 0.025 | IRAK-1-4 Inhibitor I -0.047
